For one compound, EC50 results are on record in patent publication US8188070B2, “Method of treating neurological diseases and disorders” (The Trustees of the University of Pennsylvania, priority 2002, dated 2012).

For this test, the system named is S5 cells. Nature of the test: High throughput screen: ATP level (viable cells) in S5 cells with reduced SMN. The test is classed as cell-based, chicken. The conditions noted are these: Gallus gallus, read-out: EC50 (effective concentration for half maximum activity). Here is the method:
In the SMN conditional knockout cell line, S5, the endogenous smn gene is disrupted by homologous recombination, and the SMN protein is stably expressed from an SMN cDNA under the control of a tetracycline (tet)-repressible promoter (Wang and Dreyfuss (2001) supra).
Libraries of compounds were screened against the S5 cell line. […] The cells were incubated for an additional 72 hours and the number of viable cells in each well was determined by measuring the ATP level in the cell lysate, a sensitive assay commonly used to assess cell viability in HTS (Crouch, et al. (1993) J. Immunol. Methods 160:81-88). […] Activity of the compounds was measured as the difference between the sample and the average of the controls.
The activities of all compounds were further examined at concentrations ranging from 0.5 to 20 μM. […] The activity of each compound was determined as a percentage increase of the ATP level, reflecting the number of viable cells, relative to cells treated with an equal volume of DMSO only. […]
After being incubated in medium containing 18 ng/ml tet for 24 hours, S5 cells were dispensed into 96-well plates at 120 μl per well. […] Luminescence was read on a Wallac Victor2 multi-channel plate reader (Perkin-Elmer, Boston, Mass.). […] Data from luminescence readings were analyzed with MICROSOFT® Excel.

As for `O=C(CCCN1CCC2(CC1)C(=O)NCN2c1ccccc1)c1ccc(F)cc1` [Compound 29], the EC50 was determined as 4 µM.
